Measured values from US20100160225A1.
These are yes or no findings as the source states them, for the method shown. Some binding calls cover weakened binding; strength is not graded here.

Key:
GDF-11 [1] = molecular target: T1, GDF-11 (UniProt O95390); test: BiaCore; GDF-11 amine-coupled to CM5 chip, conditioned medium as analyte
T1 sequence (looked up): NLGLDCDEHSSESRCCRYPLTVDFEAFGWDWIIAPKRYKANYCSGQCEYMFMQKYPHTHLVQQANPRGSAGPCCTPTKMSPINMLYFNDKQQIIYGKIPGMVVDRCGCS

GDF-11 [2] = molecular target: T1, GDF-11; test: Biacore; GDF-11 immobilized on chip, conditioned medium of cells expressing the construct passed over

B1: Lefty 34 (34 kDa long form of human Lefty-A with R->G alteration of the second RXXR cleavage site) (ligand)
chain: FSQSFREVAGRFLASEASTHLLVFGMEQRLPPNSELVQAVLRLFQEPVPKAALHGHGRLSPRSAQARVTVEWLRVRDDGSNRTSLIDSRLVSVHESGWKAFDVTEAVNFWQQLSRPRQPLLLQVSVQREHLGPLASGAHKLVRFASQGAPAGLGEPQLELHTLDLRDYGAQGDCDPEAPMTEGTRCCRQEMYIDLQGMKWAKNWVLEPPGFLAYECVGTCQQPPEALAFNWPFLGPRQCIASETASLPMIVSIKEGGRTRPQVVSLPNMRVQKCSCASDGALVPRRLQP
binding (GDF-11 [1]): binds
binding (GDF-11 [2]): binds

B2: Lefty 28 (28 kDa short form of human Lefty-A) (ligand)
chain: LSPRSAQARVTVEWLRVRDDGSNRTSLIDSRLVSVHESGWKAFDVTEAVNFWQQLSRPRQPLLLQVSVQREHLGPLASGAHKLVRFASQGAPAGLGEPQLELHTLDLRDYGAQGDCDPEAPMTEGTRCCRQEMYIDLQGMKWAKNWVLEPPGFLAYECVGTCQQPPEALAFNWPFLGPRQCIASETASLPMIVSIKEGGRTRPQVVSLPNMRVQKCSCASDGALVPRRLQP
binding (GDF-11 [1]): binds
binding (GDF-11 [2]): binds
